Read-outs that look alike come from different tables or passages of the source. Results are given in words; binding and its absence hold for the method and conditions named. For some assays here: Binding seen in cells or lysates may run through a third protein. Some entries that bind do so weakly or less than the wild type. For some assays here: Sequences can lack the tags named with a protein.
T1: FLAG-tagged tombusvirus p33 replication protein expressed in yeast (not stated (tombusvirus; TBSV implied)) (UniProt P15962)
T1 sequence: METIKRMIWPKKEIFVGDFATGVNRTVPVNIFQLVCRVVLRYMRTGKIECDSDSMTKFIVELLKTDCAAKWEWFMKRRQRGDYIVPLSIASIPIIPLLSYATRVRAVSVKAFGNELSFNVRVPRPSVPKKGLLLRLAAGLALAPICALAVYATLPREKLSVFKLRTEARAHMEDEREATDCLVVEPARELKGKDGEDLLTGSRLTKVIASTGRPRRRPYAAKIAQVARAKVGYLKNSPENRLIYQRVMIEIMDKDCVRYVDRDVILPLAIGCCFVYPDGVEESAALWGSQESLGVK

By UniProt entry, the sequences of proteins in these tests, tags left out. Residues count along the entry.
UniProt P15187, residues 1-296: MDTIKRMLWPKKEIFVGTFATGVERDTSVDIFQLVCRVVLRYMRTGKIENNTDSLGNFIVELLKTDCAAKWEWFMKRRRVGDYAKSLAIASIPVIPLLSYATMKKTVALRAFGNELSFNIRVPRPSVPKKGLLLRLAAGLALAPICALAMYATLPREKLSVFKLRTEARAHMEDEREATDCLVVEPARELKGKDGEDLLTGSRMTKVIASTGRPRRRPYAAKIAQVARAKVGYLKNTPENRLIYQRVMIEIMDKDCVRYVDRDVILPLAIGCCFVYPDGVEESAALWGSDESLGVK
UniProt P10591: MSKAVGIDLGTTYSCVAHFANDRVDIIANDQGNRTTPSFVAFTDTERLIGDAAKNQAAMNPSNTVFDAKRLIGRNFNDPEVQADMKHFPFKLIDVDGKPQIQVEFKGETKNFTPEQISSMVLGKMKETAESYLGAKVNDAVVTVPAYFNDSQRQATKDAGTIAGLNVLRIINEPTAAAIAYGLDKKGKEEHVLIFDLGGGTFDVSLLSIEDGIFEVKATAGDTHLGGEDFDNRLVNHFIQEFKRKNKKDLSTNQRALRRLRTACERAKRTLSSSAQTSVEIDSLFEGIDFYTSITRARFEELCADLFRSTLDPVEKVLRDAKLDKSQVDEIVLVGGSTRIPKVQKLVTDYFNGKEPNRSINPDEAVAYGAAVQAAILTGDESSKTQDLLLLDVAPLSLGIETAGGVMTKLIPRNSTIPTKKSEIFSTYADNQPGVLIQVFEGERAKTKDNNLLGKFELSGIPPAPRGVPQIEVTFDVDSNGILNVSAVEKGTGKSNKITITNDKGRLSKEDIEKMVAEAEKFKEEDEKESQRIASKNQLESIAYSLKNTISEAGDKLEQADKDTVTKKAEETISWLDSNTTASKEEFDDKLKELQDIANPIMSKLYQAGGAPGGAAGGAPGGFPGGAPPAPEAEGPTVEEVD
UniProt Q9ZNT0: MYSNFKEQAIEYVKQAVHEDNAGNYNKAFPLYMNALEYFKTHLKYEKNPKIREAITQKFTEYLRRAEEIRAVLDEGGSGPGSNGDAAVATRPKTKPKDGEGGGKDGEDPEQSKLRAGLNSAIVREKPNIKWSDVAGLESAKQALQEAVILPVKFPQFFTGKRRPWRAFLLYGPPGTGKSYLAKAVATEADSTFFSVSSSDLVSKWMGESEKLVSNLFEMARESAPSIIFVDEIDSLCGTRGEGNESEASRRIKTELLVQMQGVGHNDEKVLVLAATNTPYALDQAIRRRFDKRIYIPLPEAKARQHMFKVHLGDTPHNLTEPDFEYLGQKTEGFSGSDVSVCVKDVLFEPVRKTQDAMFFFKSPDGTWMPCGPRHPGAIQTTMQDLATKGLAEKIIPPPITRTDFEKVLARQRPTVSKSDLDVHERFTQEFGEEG

T2: tombusvirus p33 replication protein, split-ubiquitin bait (not stated (tombusvirus; TBSV implied)) (UniProt P15962)
T2 sequence: T1 sequence

B1: His6-tagged Vps24p expressed in yeast (protein, UniProt P36095 1-224)
chain: MDYIKKAIWGPDPKEQQRRIRSVLRKNGRNIEKSLRELTVLQNKTQQLIKKSAKKNDVRTVRLYAKELYQINKQYDRMYTSRAQLDSVRMKIDEAIRMNTLSNQMADSAGLMREVNSLVRLPQLRNTMIELEKELMKSGIISEMVDDTMESVGDVGEEMDEAVDEEVNKIVEQYTNEKFKNVDQVPTVELAANEEEQEIPDEKVDEEADRMVNEMRERLRALQN
B2: Vps24p ESCRT-III protein, split-ubiquitin prey (protein, UniProt P36095 1-224)
chain: B1 chain
B3: full-length yeast Vps4p, split-ubiquitin prey (construct 1-437) (protein, UniProt P52917 1-437)
chain: MSTGDFLTKGIELVQKAIDLDTATQYEEAYTAYYNGLDYLMLALKYEKNPKSKDLIRAKFTEYLNRAEQLKKHLESEEANAAKKSPSAGSGSNGGNKKISQEEGEDNGGEDNKKLRGALSSAILSEKPNVKWEDVAGLEGAKEALKEAVILPVKFPHLFKGNRKPTSGILLYGPPGTGKSYLAKAVATEANSTFFSVSSSDLVSKWMGESEKLVKQLFAMARENKPSIIFIDEVDALTGTRGEGESEASRRIKTELLVQMNGVGNDSQGVLVLGATNIPWQLDSAIRRRFERRIYIPLPDLAARTTMFEINVGDTPCVLTKEDYRTLGAMTEGYSGSDIAVVVKDALMQPIRKIQSATHFKDVSTEDDETRKLTPCSPGDDGAIEMSWTDIEADELKEPDLTIKDFLKAIKSTRPTVNEDDLLKQEQFTRDFGQEGN
B4: His6-tagged Vps4p expressed in yeast (protein, UniProt P52917 1-437)
chain: B3 chain
B5: His6-tagged Pex19p peroxisomal shuttle protein expressed in yeast (protein, UniProt Q07418 1-342)
chain: MNENEYDNFDDLDDLLDEDPTKLDEAEPDDVQAKGSVYNDSENKEKNAESKDSDGVQVANESEEDPELKEMMVDLQNEFANLMKNNGNENNVKTEDFNKLISALEEAAKVPHQQMEQGCSSLKSNSTDKGTVNGSNPGFKNIVSNTLDRLKENGNKVDTSLAEETKESQRSGQNNNIDDILSQLLDQMVASGGKESAENQFDLKDGEMDDAITKILDQMTSKEVLYEPMKEMRSEFGVWFQENGENEEHKEKIGTYKRQFNIVDEIVNIYELKDYDELKHKDRVTELLDELEQLGDSPIRSANSPLKHGNEEEELMKMLEIDGNDPNLGNLDKELTDGCKQQ
B6: His6-tagged Vps20p expressed in yeast (protein, UniProt Q04272 1-221)
chain: MGQKSSKVHITKTDRAILEVKRSKDEIHKFTRRTDNLILVEKSQLKDLIRKNPENYKSNMKVRFLLKRIHYQEHLLQQASDQLINLENMVSTLEFKMVEKQFINGLKNGNEILKKLNKEFSNVDELMDDVQDQIAYQNEINETLSRSLVGTSNYEDDLDKELDALESELNPEKMNNAKVANMPSTEGLPSLPQGEQTEQKEREEFATEERSDTKEPLALLS
B7: Vps20p ESCRT-III protein, split-ubiquitin prey (protein, UniProt Q04272 1-221)
chain: B6 chain
B8: His6-tagged N-terminally truncated Vps4p (101-437) expressed in yeast (domain or fragment, UniProt P52917 101-437)
chain: QEEGEDNGGEDNKKLRGALSSAILSEKPNVKWEDVAGLEGAKEALKEAVILPVKFPHLFKGNRKPTSGILLYGPPGTGKSYLAKAVATEANSTFFSVSSSDLVSKWMGESEKLVKQLFAMARENKPSIIFIDEVDALTGTRGEGESEASRRIKTELLVQMNGVGNDSQGVLVLGATNIPWQLDSAIRRRFERRIYIPLPDLAARTTMFEINVGDTPCVLTKEDYRTLGAMTEGYSGSDIAVVVKDALMQPIRKIQSATHFKDVSTEDDETRKLTPCSPGDDGAIEMSWTDIEADELKEPDLTIKDFLKAIKSTRPTVNEDDLLKQEQFTRDFGQEGN
B9: His6-tagged Vps2p expressed in yeast (protein, UniProt P36108 1-232)
chain: MSLFEWVFGKNVTPQERLKKNQRALERTQRELEREKRKLELQDKKLVSEIKKSAKNGQVAAAKVQAKDLVRTRNYIQKFDNMKAQLQAISLRIQAVRSSDQMTRSMSEATGLLAGMNRTMNLPQLQRISMEFEKQSDLMGQRQEFMDEAIDNVMGDEVDEDEEADEIVNKVLDEIGVDLNSQLQSTPQNLVSNAPIAETAMGIPEPIGAGSEFHGNPDDDLQARLNTLKKQT
B10: Vps2p ESCRT-III protein, split-ubiquitin prey (protein, UniProt P36108 1-232)
chain: B9 chain

Legend:
[1] = biological target: T1, FLAG-tagged tombusvirus p33 replication protein expressed in yeast (not stated (tombusvirus; TBSV implied)); assay: co-IP; FLAG-affinity purification of the replicase via FLAG-p33 from solubilized (NP-40) membrane fraction of yeast also expressing His6-p92 and DI-72 repRNA, after 1% formaldehyde cross-linking; anti-His Western blot; in Fig. 2B cycloheximide (100 µg/ml) for 0, 60 and 150 min
[2] = biological target: FLAG-tagged p33 replication protein derived from cucumber necrosis virus, expressed in N. benthamiana (cucumber necrosis virus) (UniProt P15187); assay: co-IP; FLAG-affinity purification of FLAG-tagged p33 from detergent-solubilized membrane fraction of N. benthamiana leaves co-expressing His6-AtVps4, p33 and p19; anti-His Western blot
[3] = biological target: T2, tombusvirus p33 replication protein, split-ubiquitin bait (not stated (tombusvirus; TBSV implied)); assay: two-hybrid; split-ubiquitin membrane yeast two-hybrid (MYTH, Dualsystems) in yeast NMY51; p33 bait, NubG preys; serial dilutions spotted on TLHA- plates
[4] = biological target: T1, FLAG-tagged tombusvirus p33 replication protein expressed in yeast (not stated (tombusvirus; TBSV implied)); assay: co-IP; FLAG-affinity purification of FLAG-p33 (FLAG M2-agarose) from solubilized membrane fraction of yeast BY4741 after 1% formaldehyde cross-linking; His6-tagged host proteins detected with anti-His antibody
[5] = biological target: T2, tombusvirus p33 replication protein, split-ubiquitin bait (not stated (tombusvirus; TBSV implied)); assay: two-hybrid; split-ubiquitin membrane yeast two-hybrid (MYTH, Dualsystems) in yeast NMY51; p33 bait, NubG preys; serial dilutions spotted on TLHA- plates; remark: listed apart in the source

Molecule | binding [1] | binding [4] | binding [5] | further results
His6-tagged Ssa1p Hsp70 expressed in yeast (from UniProt P10591 1-642) | binds | – | – | –
His6-tagged Arabidopsis thaliana Vps4 expressed in N. benthamiana (from UniProt Q9ZNT0 1-435) | – | – | – | binding [2]: binds
Vps4p N-terminal MIT domain, split-ubiquitin prey (construct 1-100) (from UniProt P52917 1-100) (domain or fragment) | – | – | – | binding [3]: binds
B1 | – | binds | – | –
B2 | – | – | binds | –
B3 | – | – | binds | –
B4 | binds | binds | – | –
B5 | binds | – | – | –
B6 | – | binds | – | –
B7 | – | – | binds | –
B8 | binds | – | – | –
B9 | – | binds | – | –
B10 | – | – | binds | –

Reference: paper PMC3999190
